Data taken from patent publication US20220265814A1, “R[…] FOR CORONA VIRUS DISEASE 19 AND COMBINATION THERAPY USING THE SAME” (priority 2021, published 2022).
Some of these results come from one statement about several compounds together. At least one compound was matched to its structure with a doubt left.

System: recombinant adenovirus (GFP tagging)
Experiment: antiviral activity against recombinant adenovirus (GFP fluorescence intensity) in HEK293A cells
Assay type: cell-based
Settings: 50 μM compound, recombinant adenovirus MOI=0.5, after 72 hours
Procedure: After dispensing HEK293A cells at 10,000 cells/well on a 96-well plate and stabilizing for 24 hours, the recombinant adenovirus (GFP tagging, MOI=0.5) prepared in Example and 18 compounds listed in Table 1 below (50 μM)) were treated and incubated for 24, 48 and 72 hours, the GFP fluorescence intensity (Excitation=485 nm, Emission=528 nm) was observed.

| Molecule | virus inhibitory activity |
| --- | --- |
| 3-O-vanillyl ceanothic acid [Compound C6] | ≥ 50% |
| C=C(C)[C@@H]1CC[C@]2(C(=O)O)CC[C@]3(C)[C@H](CC[C@@H]4[C@@]5(C)[C@H](C(=O)OC)[C@H](O)C(C)(C)[C@@H]5CC[C@]43C)[C@@H]12 [Compound C8, epiceanothic acid 2-methyl ester] | ≥ 50% |
